Data taken from article PMC12507952.
No constants are given. Whether binding was seen depends on the method and setting. Binding seen in cells or lysates may run through a third protein. Some binding calls cover weakened binding; strength is not graded here.

Target: T1, RANK (mouse (endogenous in bone marrow-derived pre-OCs)) (UniProt O35305)
T1 sequence: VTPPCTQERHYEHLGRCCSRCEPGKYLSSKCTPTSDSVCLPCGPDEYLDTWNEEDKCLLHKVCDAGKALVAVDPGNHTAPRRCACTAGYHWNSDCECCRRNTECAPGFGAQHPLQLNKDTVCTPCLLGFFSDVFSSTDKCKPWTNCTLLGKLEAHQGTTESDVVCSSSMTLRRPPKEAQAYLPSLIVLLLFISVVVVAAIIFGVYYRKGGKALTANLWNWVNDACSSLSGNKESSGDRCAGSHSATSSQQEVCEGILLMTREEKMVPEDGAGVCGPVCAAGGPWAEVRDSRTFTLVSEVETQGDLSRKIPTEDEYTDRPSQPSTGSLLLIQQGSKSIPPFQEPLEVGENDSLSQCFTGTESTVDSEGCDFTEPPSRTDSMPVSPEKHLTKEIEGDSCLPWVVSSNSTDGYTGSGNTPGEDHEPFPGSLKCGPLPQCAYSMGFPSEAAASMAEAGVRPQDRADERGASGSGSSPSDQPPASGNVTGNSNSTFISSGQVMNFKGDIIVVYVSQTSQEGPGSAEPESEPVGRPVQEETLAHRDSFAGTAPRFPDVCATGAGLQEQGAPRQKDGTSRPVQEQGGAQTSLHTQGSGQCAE
Test: co-IP; lysate of pre-OCs (RIPA buffer with protease inhibitors), with or without Yoda1 for 30 min; anti-RANK antibody overnight at 4°C, Protein A/G magnetic beads, washed with TBST; blot with anti-TRAF6

binding: binds
B1: TRAF6 (protein, UniProt P70196 1-530)
chain: MSLLNCENSCGSSQSSSDCCAAMAASCSAAVKDDSVSGSASTGNLSSSFMEEIQGYDVEFDPPLESKYECPICLMALREAVQTPCGHRFCKACIIKSIRDAGHKCPVDNEILLENQLFPDNFAKREILSLTVKCPNKGCLQKMELRHLEDHQVHCEFALVNCPQCQRPFQKCQVNTHIIEDCPRRQVSCVNCAVSMAYEEKEIHDQSCPLANIICEYCGTILIREQMPNHYDLDCPTAPIPCTFSVFGCHEKMQRNHLARHLQENTQLHMRLLAQAVHNVNLALRPCDAASPSRGCRPEDPNYEETIKQLESRLVRQDHQIRELTAKMETQSMYVGELKRTIRTLEDKVAEMEAQQCNGIYIWKIGNFGMHLKSQEEERPVVIHSPGFYTGRPGYKLCMRLHLQLPTAQRCANYISLFVHTMQGEYDSHLPWPFQGTIRLTILDQSEALIRQNHEEVMDAKPELLAFQRPTIPRNPKGFGYVTFMHLEALRQGTFIKDDTLLVRCEVSTRFDMGGLRKEGFQPRSTDAGV
